The values below come from paper PMC10999177.

By UniProt entry, the sequences of proteins in these tests, tags left out. Residues count along the entry.
UniProt Q9UKV8, whole entry: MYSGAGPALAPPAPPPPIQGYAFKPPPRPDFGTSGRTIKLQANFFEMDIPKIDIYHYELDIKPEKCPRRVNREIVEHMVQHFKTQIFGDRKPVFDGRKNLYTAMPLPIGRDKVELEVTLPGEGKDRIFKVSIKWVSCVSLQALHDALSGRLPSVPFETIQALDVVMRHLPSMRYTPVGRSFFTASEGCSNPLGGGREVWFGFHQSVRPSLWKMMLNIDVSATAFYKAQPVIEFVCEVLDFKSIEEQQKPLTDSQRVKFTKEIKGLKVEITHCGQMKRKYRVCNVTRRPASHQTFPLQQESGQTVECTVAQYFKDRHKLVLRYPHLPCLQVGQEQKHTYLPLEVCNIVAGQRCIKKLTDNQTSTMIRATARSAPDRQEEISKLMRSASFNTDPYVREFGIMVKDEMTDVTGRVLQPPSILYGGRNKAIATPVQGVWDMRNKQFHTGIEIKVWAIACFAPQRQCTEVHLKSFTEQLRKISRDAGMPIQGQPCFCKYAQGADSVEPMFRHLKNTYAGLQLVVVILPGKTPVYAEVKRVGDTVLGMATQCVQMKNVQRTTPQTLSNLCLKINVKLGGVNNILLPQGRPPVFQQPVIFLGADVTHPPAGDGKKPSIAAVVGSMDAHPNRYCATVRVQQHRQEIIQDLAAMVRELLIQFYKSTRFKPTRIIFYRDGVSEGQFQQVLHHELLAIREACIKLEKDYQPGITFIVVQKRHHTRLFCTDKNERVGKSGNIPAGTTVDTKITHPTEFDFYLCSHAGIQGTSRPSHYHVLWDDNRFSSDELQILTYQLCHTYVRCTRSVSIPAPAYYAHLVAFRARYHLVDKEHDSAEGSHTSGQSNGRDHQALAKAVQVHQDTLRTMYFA
UniProt Q9UKV8, 224-350: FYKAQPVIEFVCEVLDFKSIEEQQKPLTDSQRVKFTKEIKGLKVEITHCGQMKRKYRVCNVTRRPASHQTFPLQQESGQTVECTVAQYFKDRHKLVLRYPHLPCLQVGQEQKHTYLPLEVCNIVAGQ

One data set addresses hAGO2 (Homo sapiens) (UniProt Q9UKV8). Nature of the data set: EMSA. Conditions: 20 nM probe, on ice 30 min, 5% native PAGE, 0.5x TBE, 100 V 50 min, recombinant protein, residues 1-859. For orientation: Mobility shift assays separate free from complexed probe on a gel.
In data set [1] the target is AGO2 PAZ domain (Homo sapiens) (UniProt Q9UKV8). Nature of the data set: EMSA. Conditions: stronger than to miR-1246; 20 nM probe, on ice 30 min; 5% native PAGE, 0.5x TBE, 100 V 50 min; recombinant protein; residues 224-350; DNA:RNA hybrid.

The exact form of at least one protein or probe is not confirmed.

The term Kd denotes a measure of binding affinity in units of concentration. “AAUGGAUUUUUGGAGCAGG / CCTGCTCCAAAAATCCATT [miR-1246/ssDNA hybrid]”: in the data set with hAGO2 (Homo sapiens) (DNA:RNA hybrid), the equilibrium dissociation constant (Kd) came to 24.7 nM. For the same sequence, in data set [1], the binding result is given as “binds”.
In the case of “AAUGGAUUUUUGGAGCAGG / ATGACGCTGCCGAATTCTACCGCCCTGCTCCAAAAATCCATTTTTAGGTTCACCTCGTCCCTGGC / GCCAGGGACGAGGTGAACCTGGCCCGTTCGGGCGTAGTTCATTATGTAGAATTCGGCAGCGTCAT [R-loop analog containing miR-1246]”, the dissociation constant Kd with hAGO2 (Homo sapiens) worked out at 13 nM.
